The values that follow come from article PMC5701422.

Series [1] addresses T1, EgMYB4 (His-EgMYB4) (UniProt A0A140GNA8).
T1 sequence (looked up, limits assumed): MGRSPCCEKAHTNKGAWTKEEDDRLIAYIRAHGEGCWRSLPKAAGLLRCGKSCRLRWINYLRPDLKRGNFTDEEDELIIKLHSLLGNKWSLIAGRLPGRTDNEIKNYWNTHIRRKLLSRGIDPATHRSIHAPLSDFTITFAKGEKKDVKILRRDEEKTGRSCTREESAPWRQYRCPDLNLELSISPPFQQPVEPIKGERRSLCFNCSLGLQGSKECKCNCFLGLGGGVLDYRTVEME
The series is described as follows: EMSA. As to conditions: LightShift Chemiluminescent EMSA Kit (Thermo) per manufacturer; biotin-labelled probes; pH and temperature not stated; recombinant protein; protein details: …; label: biotin. (In general: In EMSA bound probe runs differently from free probe, usually more slowly.)

Series [2] deals with T1, EgMYB4 (His-EgMYB4). The series can be described thus: competition with a labelled probe. As to conditions: labeled complex disappeared, LightShift Chemiluminescent EMSA Kit (Thermo) per manufacturer, biotin-labelled probes, pH and temperature not stated, recombinant protein, protein details: ….

The exact form of at least one protein or probe is not confirmed. For part of these data: No signal at the amounts used counts as a negative. Protein sequences can lack the tags named with them.

For the sequence “GTTATCCGTTCGCGGAGGATCGCCATATCAACCAAG (double strand) [AC-mV]”, the binding result in series [1] was “no binding”.
On to “GAGGCCCATAAACCAAACGTAGAAAAG (double strand) [AC-IV unlabeled competitor]”, for which the binding result in series [2] (250-fold excess unlabeled AC-IV) was “binds”.
With “GTTATCCGTTCGCAACAACCCGCCATATCAACCAAG (double strand) [AC-V unlabeled competitor]”, the binding result in series [2] (250-fold excess unlabeled AC-V) is reported as “binds”.
As for “GTTATCCGTTCGCAACAACCCGCCATATCAACCAAG (double strand) [AC-V]”, the binding result in series [1] is “binds”.
Regarding “GAGGCCCATAAGAAGGGAGTAGAAAAG (double strand) [AC-mIV]”, the binding result in series [1] is “no binding”.
As for “GAGGCCCATAAACCAAACGTAGAAAAG (double strand) [AC-IV]”, the binding result in series [1] is reported as “binds”.
